Results: patent US20090281040A1, “Methods For Treating Endoplasmic Reticulum (ER) Stress Disorders” (priority 2008, published 2009)
No constants are given. Whether binding was seen depends on the method and setting. For part of these data: Binding seen in cells or lysates may run through a third protein. Some entries that bind do so weakly or less than the wild type.

Protein sequences, listed by entry. Tags and fused reporters are not part of them.
UniProt G3V909: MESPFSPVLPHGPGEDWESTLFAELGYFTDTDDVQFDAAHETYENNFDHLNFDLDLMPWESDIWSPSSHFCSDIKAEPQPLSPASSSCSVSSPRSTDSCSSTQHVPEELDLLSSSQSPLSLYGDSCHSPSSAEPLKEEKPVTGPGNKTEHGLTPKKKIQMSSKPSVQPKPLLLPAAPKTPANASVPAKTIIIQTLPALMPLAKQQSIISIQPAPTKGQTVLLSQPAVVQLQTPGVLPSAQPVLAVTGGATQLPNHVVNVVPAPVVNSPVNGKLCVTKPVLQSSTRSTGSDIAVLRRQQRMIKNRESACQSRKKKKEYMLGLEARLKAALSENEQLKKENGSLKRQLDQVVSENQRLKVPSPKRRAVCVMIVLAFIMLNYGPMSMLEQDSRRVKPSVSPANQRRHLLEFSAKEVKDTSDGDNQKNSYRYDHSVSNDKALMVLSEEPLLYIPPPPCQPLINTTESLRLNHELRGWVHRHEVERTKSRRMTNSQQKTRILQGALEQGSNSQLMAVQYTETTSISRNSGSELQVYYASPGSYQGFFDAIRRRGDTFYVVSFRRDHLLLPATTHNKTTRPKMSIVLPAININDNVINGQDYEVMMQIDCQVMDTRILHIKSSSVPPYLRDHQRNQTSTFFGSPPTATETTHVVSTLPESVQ

What was measured:
[1] = target: Activating Transcription Factor 6 (ATF6), endogenous protein of INS-1 832/13 cells (rat) (UniProt G3V909); experiment: closing sentence on the co-immunoprecipitations and glycerol gradient fractions of INS1 832/13 cells
[2] = target: Activating Transcription Factor 6 (ATF6), endogenous protein of INS-1 832/13 cells (rat) (UniProt G3V909); experiment: co-immunoprecipitation with anti-WFS1 antibody from INS-1 832/13 cells, immunoblot with anti-ATF6; DTT (1 mM) caused time-dependent dissociation, almost complete at 3 hr
[3] = target: Activating Transcription Factor 6 (ATF6), endogenous protein of INS-1 832/13 cells (rat) (UniProt G3V909); experiment: co-immunoprecipitation from glycerol gradient fractions of ER extracts, INS-1 832/13 cells (FIG. 8C legend)
[4] = target: Activating Transcription Factor 6 (ATF6), endogenous protein of INS-1 832/13 cells (rat) (UniProt G3V909); experiment: WFS1 immunoprecipitated from glycerol gradient fractions 10-11 of ER lysates of INS-1 832/13 cells, immunoblot (FIG. 8C, left panel)
[5] = target: Activating Transcription Factor 6 (ATF6), endogenous protein of INS-1 832/13 cells (rat) (UniProt G3V909); experiment: co-immunoprecipitation and immunoblot, INS-1 832/13 cells (FIG. 6A legend)
[6] = target: Activating Transcription Factor 6 (ATF6), endogenous protein of INS-1 832/13 cells (rat) (UniProt G3V909); experiment: co-immunoprecipitation with anti-WFS1 antibody and immunoblot, INS-1 832/13 cells (FIG. 6B legend)

binding [1]: binds
binding [2]: binds
binding [3]: binds
binding [4]: binds
binding [5]: binds
binding [6]: binds
B1: Wolfram syndrome 1 (WFS1), endogenous protein of INS-1 832/13 cells (protein, rat)
chain: SGTPPPSPSGPPPPPAPQPQARARLNATTSLEQDKIEPPRAPRPQPDSSAGRSAGEATTPEPRAPHASSREGTDKAGPMKADVEIPFEEILEKAKAGDPKAQTEVGKHYLRLANDADEELNSCSAVAWLILAAKQGRREAVKLLRRCLADRKGITSENEAEVKQLSSETDLERAVRKAALVMYWKLNPKKKKQVAVSELLENVGQVNEQDGGAQPGPVPKSLQKQRRMLERLVSSESKNYIALDDFVELTKKYAKGIIPNNLFLQDEDEDEDELSGKSPEDLPLRQKVVKYPLHAIMEIKEYLIDVASKAGMHWLSTIVPTHHINALIFFFIISNLTIDFFAFFIPLVVFYLSFVSMVICTLKVFQDSKAWENFRTLTDLLLRFEPNLDVEQAEVNFGWNHLEPYIHFLLSVVFVIFSFPLASKDCIPCSELAVVSAFFTVTSYMSLSSSAEPYTRRALVTEVAAGLLSLLPTMPVDWPFLKALGQTFFTVPIGHFIILNVSLPCLLYVYLFYLFFRMAQLRNFKGTYCYLVPYLVCFMWCELSVVILLQSTGLGLVRASIGYFLFLFALPILVAGLALMGTVQFARWFLSLDLTKIMVTTVICSVPLLFRWWTKANFSVVGMVKSLTRSSIVKLILVWLTAILLFCWFYVYRSEGMKVYNSTLTWQQYGFLCGPRAWKETNMARTQILCSHLEGHRVTWTGRFKYVRVTEIDNSAESAINMLPFFLGDWMRCLYGEAYPSCSSGNTSTAEEELCRLKQLAKHPCHIKKFDRYKFEITVGMPFGTNGNRGHEEDDITKDIVLRASSEFKDVLLNLRQGSLIEFSTILEGRLGSKWPVFELKAISCLNCMTQLSPARRHVKIEQDWRSTVHGALKFAFDFFFFPFLSAA
